# Assay: general procedure: solution-phase peptide synthesis; PyBOP/HOBt/diisopropyl ethyl amine
substance,measurement,setting,value
carfilzomib,purity (crude or final not stated),"coupling step, HPLC, maleate",26%
same,final HPLC purity,"coupling step, maleate",25.91%
same,final HPLC purity,"coupling step, maleate salt",99%
same,final HPLC purity,"late stage modification step, maleate salt",99.8%
same,final HPLC purity,"purification step, maleate salt",99.8%

# From patent US10800809 (dated 2020)
